PubChem BioAssay AID652259 – Drosophila RNAi Screening Center | 2013
Test: 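Genome-wide hunt for genes that control Wingless pathway activity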 (primary screen). Cells: Drosophila clone 8 imaginal disc epithelial cells. Reagent: long dsRNA against Drosophila genes. Challenge: pathway stimulated by co-transfected Wingless expression plasmid. Measured: 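Dual luciferase reads per well after Wingless plasmid stimulation: reporter firefly light and Renilla control light; activity is firefly divided by Renilla, a ratio not deposited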. Reading the numbers: firefly reporter light: higher = more Wg reporter light, before normalisation; Renilla control light: higher = more transfected or surviving cells. Rule for the call: 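a knock-down is a candidate when at least two out of four statistical tests show it departing from its plate mean; one test alone signals a weak candidate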. Meaning of the calls: active = candidate regulator (raises or lowers reporter); inactive = not a candidate.
In all, the deposit lists about 22,000 reagents; this is a random part of those with a known target gene and a result. In the full data, 233 (1.1%) are marked active. 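Light values are raw, unnormalised plate reads; the ratio scores behind the reporter calls were not deposited.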 Unmarked entries are inactive. Not given: the amount of reagent, the time to read-out, the dose of the treatment.

Target gene,amplicon,"firefly reporter light, replicate 1","firefly reporter light, replicate 2","Renilla control light, replicate 1","Renilla control light, replicate 2"
HP1c,DRSC16166,3047,9344,1338,2512
Prp8,DRSC07293,7443,,1185,
CG5070,DRSC19932,18610,,9957,
Rcd-1,DRSC19569,26964,,12076,
dao,DRSC01960,2904,5537,1205,3127
CG15201,DRSC19648,25059,,9888,
stai,DRSC02920,2473,4528,659,1792
stai,DRSC22235,6.42e5,7.32e5,2.31e5,2.71e5
Burs,DRSC14595,31622,,5004,
laf,DRSC12246,16544,,5157,
CG32277,DRSC08196,5363,,2188,
Ssl1,DRSC11634,10833,,2386,
CG9876,DRSC04586,3408,6481,813,2545
CG34267,DRSC07881,3121,,1376,
stumps,DRSC13045,4378,,932,
stumps,DRSC15332,7353,,2048,
stumps,DRSC17073,5090,,2149,
CG5131,DRSC02817,3047,8450,1296,3408
Cwc25,DRSC00545,2412,8551,809,2604
l(3)neo38,DRSC14946,24342,,6040,
l(3)neo38,DRSC16138,19808,,4311,
eve,DRSC07614,5232,5720,568,2298
CG12836,DRSC06182,3929,7814,1171,3328
eag,DRSC19067,4392,,1530,
eag,DRSC20328,17904,,8604,
CG43138,DRSC17527,3217,,1537,
LRP1,DRSC07238,2075,6330,667,2503
Nup133,DRSC16150,3478,3826,1363,1312
Xpac,DRSC18730,17442,,10037,
Nbr,DRSC03166,8443,,2440,
Inx7,DRSC18784,21383,,8084,
CG9427,DRSC16490,8134,,2981,
Nost,DRSC18037,20213,,8845,
Nost,DRSC18338,21888,,10240,
l(2)34Fd,DRSC01911,5349,,1740,
Cyp9b2,DRSC07390,2365,3996,483,1944
loaf,DRSC09130,1405,,683,
Grx1t,DRSC04530,2826,5714,624,2282
gish,DRSC16154,2727,6348,1414,2131
CG17807,DRSC04296,5099,,1368,
CG8728,DRSC07251,10507,,3288,
Polr3E,DRSC11880,9747,,4412,
frma,DRSC18297,1314,5341,538,1547
CG18649,DRSC10334,8982,,2202,
CG6996,DRSC10758,11898,,2374,
CG14411,DRSC19597,22107,,7121,
rush,DRSC18568,3786,10897,1946,3836
sug,DRSC06855,13164,,2675,
CG18469,DRSC21838,4.03e5,4.49e5,2.23e5,2.22e5

A run of entries taken from the entries so far:
Target gene,amplicon,"firefly reporter light, replicate 1","firefly reporter light, replicate 2","Renilla control light, replicate 1","Renilla control light, replicate 2"
CG6996,DRSC10758,11898,,2374,
CG14411,DRSC19597,22107,,7121,
rush,DRSC18568,3786,10897,1946,3836
sug,DRSC06855,13164,,2675,
